No constants are given. Whether binding was seen depends on the method and setting. Binding seen in cells or lysates may run through a third protein. Some binding calls cover weakened binding; strength is not graded here.

For the assay, the target named is T1, H3K27me3 peptide.
T1 sequence (peptide, trimethyl-lysine at K27): LATKAARKSAPATGGC
As to the kind of experiment: pull-down; H3K27 or H3K27me3 peptides coupled to SulfoLink Coupling Gel; equal amounts of 35S-methionine-labelled in vitro translated wild-type and mutant LHP1; SDS-PAGE, storage phosphor screen; only the target purified.

B1: LIKE HETEROCHROMATIN PROTEIN 1 (LHP1), wild type (protein, UniProt Q946J8 1-445)
chain: MKGASGAVKKKPQVLNEAGEAETAVETVGESRKISGDGGFGSDDGGGGGGGGSGESILREIGDDRPTEDGDEEEEEDEDEDDGGDEEDEEGEGEGGQEERPKLDEGFYEIEAIRRKRVRKGKVQYLIKWRGWPETANTWEPLENLQSIADVIDAFEGSLKPGKPGRKRKRKYAGPHSQMKKKQRLTSTSHDATEKSDSSTSLNNSSLPDIPDPLDLSGSSLLNRDVEAKNAYVSNQVEANSGSVGMARQVRLIDNEKEYDPTLNELRGPVNNSNGAGCSQGGGIGSEGDNVRPNGLLKVYPKELDKNSRFIGAKRRKSGSVKRFKQDGSTSNNHTAPTDQNLTPDLTTLDSFGRIARMGNEYPGVMENCNLSQKTKIEELDITKILKPMSFTASVSDNVQEVLVTFLALRSDGKEALVDNRFLKAHNPHLLIEFYEQHLKYNRTP
modifications: labelled with L-[35S]methionine
For the molecule B1, the binding result was “binds”.

(Values after paper PMC2670505.)
